The source of these data is PubChem BioAssay AID180 (DTP/NCI, 2004).

Each structure is given as a SMILES string. The list shows only some results of the screen, not a fair sample: it is rich in T/C values a quarter to a half above the control, in often repeated tests (any T/C) and in doses without a T/C. Other doses and runs of a compound stand elsewhere. T/C is the treated group as % of the vehicle group. Schedules are NCI's codes, read here as Q, the interval in days (D) or hours (H), X, the number of doses. Some T/C values are followed by the survivors on the day toxicity was checked, most often the fifth; where none is given, no animal had died by that day. Some doses were run more than once; the results are listed from low to high. Some schedules carry Z or #; the key to these is not given. Some doses have a count of surviving animals in place of a T/C: the source files T/C as zero there, which appears to mark a toxic dose or a test without result, not a measured value. Counts of survivors are from the toxicity check (mostly the fifth day) where no day follows; animals may have died later.

This assay has as its system BDF1 mice, Adenocarcinoma 755 s.c., tumor weight T/C. The experiment in a line: NCI In Vivo Anticancer Drug Screen. Data for tumor model Adenocarcinoma 755 (subcutaneous) in B6D2F1 (BDF1) mice. As to conditions: T/C endpoint: mean tumor weight, higher T/C = larger tumour; for T/C: evaluated on day 12. The procedure, abridged: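 Compound activity was tested in mice carrying transplanted tumors. Survival or tumor size was measured, and each value is the treated-group measurement divided by that of the vehicle-treated control group (T/C).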

Setting [1] is: dose: 50.0 mg/kg/injection, schedule: Q01DX011 (ip), vehicle: carboxymethylcellulose (CMC).
Where [2] appears, read: dose: 100.0 mg/kg/injection, schedule: Q01DX011 (ip), vehicle: carboxymethylcellulose (CMC).
The mark [3] stands for this setting: dose: 250.0 mg/kg/injection, schedule: Q01DX011 (ip), vehicle: carboxymethylcellulose (CMC).

Take `CN(Cc1cnc2nc(NCNC(=O)C3=C(O)[C@@]4(O)C(=O)C5=C(O)c6c(O)cccc6[C@@](C)(O)[C@H]5C[C@H]4[C@H](N(C)C)C3=O)nc(N)c2n1)c1ccc(C(=O)NC(CCC(=O)O)C(=O)O)cc1` (some centres not stated): the survivor count (dose: 6.0 mg/kg/injection, schedule: Q01DX011 (ip), vehicle: saline) was 0 of 10; the survivor count (dose: 24.0 mg/kg/injection, schedule: Q01DX011 (ip), vehicle: saline) was 3 of 10; the survivor count (dose: 48.0 mg/kg/injection, schedule: Q01DX011 (ip), vehicle: saline) was 0 of 10.
Turning to `CS(=O)(=O)OCC(=O)NCCNC(=O)COS(C)(=O)=O`, the survivor count by setting is: (dose: 140.0 mg/kg/injection, schedule: Q01DX011 (ip), vehicle: carboxymethylcellulose (CMC)) 6 of 10; (dose: 315.0 mg/kg/injection, schedule: Q01DX011 (ip), vehicle: carboxymethylcellulose (CMC)) 6 of 10; (dose: 475.0 mg/kg/injection, schedule: Q01DX011 (ip), vehicle: carboxymethylcellulose (CMC)) 6 of 10.
For `CN1CC(=O)NC1=O`, the survivor count (dose: 2000.0 mg/kg/injection, schedule: Q01DX011 (ip), vehicle: saline) was 3 of 10.
Take `[I][Hg][CH2][C@H]1CO[C@H]([CH2][Hg][I])CO1`: the survivor count runs as follows: under setting [1], 1 of 10; under setting [2], 0 of 10; (dose: 200.0 mg/kg/injection, schedule: Q01DX011 (ip), vehicle: carboxymethylcellulose (CMC)) 0 of 10.
Take `[N-]=[N+]=C1N=CN=C1c1ncn[nH]1`: the survivor count is, setting by setting: under setting [1], 6 of 10; (dose: 75.0 mg/kg/injection, schedule: Q01DX011 (ip), vehicle: carboxymethylcellulose (CMC)) 0 of 10.
For `Nc1nsnc1C(=O)O`, where the note is “dose: 46.0 mg/kg/injection, schedule: Q01DX011 (ip), vehicle: carboxymethylcellulose (CMC)”, the T/C is 125 % of control. Also, the survivor count (dose: 375.0 mg/kg/injection, schedule: Q01DX011 (ip), vehicle: carboxymethylcellulose (CMC)) is listed as 5 of 10.
`COC(=O)C1=COC(C)C2CN3CCc4c([nH]c5cc(OC)ccc45)C3CC12` (configuration not stated): for the setting “dose: 175.0 mg/kg/injection, schedule: Q01DX011 (ip), vehicle: other”, the survivor count is 5 of 10.
As to `CNc1ncnc2c1cnn2C`, under “dose: 40.0 mg/kg/injection, schedule: Q01DX011 (ip), vehicle: methylcellulose (MC)”, the survivor count is given as 6 of 10.
For `OCCOCCN1CCN(CCCN2c3ccccc3Sc3ccc(C(F)(F)F)cc32)CC1`, the survivor count (dose: 5.0 mg/kg/injection, schedule: Q01DX011 (ip), vehicle: saline) is listed as 2 of 10; the survivor count (dose: 10.0 mg/kg/injection, schedule: Q01DX011 (ip), vehicle: saline) was 1 of 10; the survivor count (dose: 40.0 mg/kg/injection, schedule: Q01DX011 (ip), vehicle: saline) is recorded as 4 of 10.
On to `O=C1NC(=O)c2cc([N+](=O)[O-])cc3cccc1c23`, for which the survivor count reads like this: (dose: 85.0 mg/kg/injection, schedule: Q01DX011 (ip), vehicle: methylcellulose (MC)) 4 of 10; (dose: 680.0 mg/kg/injection, schedule: Q01DX011 (ip), vehicle: methylcellulose (MC)) 1 of 10.
With `CCn1cnc2c(=S)nc[nH]c21`, the survivor count is recorded as 6 of 10 (dose: 12.5 mg/kg/injection, schedule: Q#A X022 (ip), vehicle: carboxymethylcellulose (CMC)); 6 of 10 under setting [1]; 1 of 10 (dose: 50.0 mg/kg/injection, schedule: Q#A X022 (ip), vehicle: carboxymethylcellulose (CMC)); 6 of 10 (dose: 100.0 mg/kg/injection, schedule: Q01DX006 (iv), vehicle: carboxymethylcellulose (CMC)); 1 of 10 under setting [2]; 0 of 10 (dose: 200.0 mg/kg/injection, schedule: Q01DX011 (im), vehicle: carboxymethylcellulose (CMC)). Further, the survivor count was 0 of 10 (dose: 200.0 mg/kg/injection, schedule: Q01DX011 (oral), vehicle: carboxymethylcellulose (CMC)); 0 of 10 (dose: 400.0 mg/kg/injection, schedule: Q01DX011 (oral), vehicle: carboxymethylcellulose (CMC)); 0 of 10 (dose: 600.0 mg/kg/injection, schedule: Q03DX004 (ip), vehicle: carboxymethylcellulose (CMC)); 1 of 10 (dose: 700.0 mg/kg/injection, schedule: Q07DX002 (ip), vehicle: carboxymethylcellulose (CMC)).
Take `CC(=O)N(C)C`: the T/C is 132 % of control (dose: 250.0 mg/kg/injection, schedule: Q01DX006 (iv), vehicle: saline); 140 % of control (dose: 250.0 mg/kg/injection, schedule: Q01DX011 (im), vehicle: saline); 147 % of control (dose: 250.0 mg/kg/injection, schedule: Q01DX011 (sc), vehicle: saline); 128 % of control [8 of 10 alive] (dose: 250.0 mg/kg/injection, schedule: Q#A X022 (ip), vehicle: saline). The survivor count reads like this: (dose: 1500.0 mg/kg/injection, schedule: Q01DX011 (ip), vehicle: other) 5 of 10; (dose: 2000.0 mg/kg/injection, schedule: Q01DX011 (ip), vehicle: other) 3 of 10; (dose: 2000.0 mg/kg/injection, schedule: Q01DX011 (sc), vehicle: saline) 6 of 10.
Consider `CN1CC[C@]23c4c5ccc(O)c4O[C@H]2C(=O)CC[C@@]3(O)[C@H]1C5`, for which the survivor count (dose: 36.0 mg/kg/injection, schedule: Q01DX011 (ip), vehicle: methylcellulose (MC)) is recorded as 5 of 10.
For the compound `CN(C)/N=N/c1nc[nH]c1C(N)=O`, the survivor count is on record as 6 of 10 (dose: 200.0 mg/kg/injection, schedule: Q01DX011 (ip), vehicle: methylcellulose (MC)); 2 of 10 under setting [3]; 4 of 10 (dose: 300.0 mg/kg/injection, schedule: Q01DX011 (ip), vehicle: saline); 1 of 10 (dose: 320.0 mg/kg/injection, schedule: Q01DX011 (ip), vehicle: carboxymethylcellulose (CMC)); 0 of 10 (dose: 640.0 mg/kg/injection, schedule: Q01DX011 (ip), vehicle: carboxymethylcellulose (CMC)).
`CC1CC(C)C(=O)C(C(=O)CC2CC(=O)NC(=O)C2)C1` (configuration not stated): the survivor count under setting [3] is 4 of 10.
As to `COc1ccc(/C=N/Nc2nc3c([nH]2)c(=O)n(C)c(=O)n3C)cc1`, the T/C (dose: 120.0 mg/kg/injection, schedule: Q01DX011 (ip), vehicle: carboxymethylcellulose (CMC)) is 141 and 143 % of control [9 of 10 alive].
With `c1ccc2c3c(ccc2c1)Sc1ccc2ccccc2c1N3`, the survivor count (dose: 220.0 mg/kg/injection, schedule: Q01DX011 (ip), vehicle: methylcellulose (MC)) is reported as 6 of 10 and the survivor count (dose: 880.0 mg/kg/injection, schedule: Q01DX011 (ip), vehicle: other) is on record as 1 of 10.
On to `OCCN1CCN(CC/C=C2/c3ccccc3Sc3ccc(Cl)cc32)CC1`, for which the survivor count was 5 of 10 (dose: 10.0 mg/kg/injection, schedule: Q01DX011 (ip), vehicle: methylcellulose (MC)); 0 of 10 (dose: 20.0 mg/kg/injection, schedule: Q01DX011 (ip), vehicle: methylcellulose (MC)); 0 of 10 (dose: 25.0 mg/kg/injection, schedule: Q01DX011 (ip), vehicle: methylcellulose (MC)).
On to `CCCCCCCCCCCCNCCCCCCCCCCCC`, for which the survivor count is given as 6 of 10 (dose: 2.5 mg/kg/injection, schedule: Q01DX006 (ip), vehicle: other); 3 of 10 (dose: 5.0 mg/kg/injection, schedule: Q01DX006 (ip), vehicle: other); 1 of 10 (dose: 7.5 mg/kg/injection, schedule: Q01DX006 (ip), vehicle: other).
For the compound `O=P1(N(CCCl)CCCl)NCCCO1` (configuration not stated), the survivor count (dose: 100.0 mg/kg/injection, schedule: Q01DX011 (ip), vehicle: saline) is listed as 4 of 10 and the survivor count (dose: 200.0 mg/kg/injection, schedule: Q01DX011 (ip), vehicle: saline) is 0 of 10.
On to `Cc1cn(C2OC(CO)C(O)C2O)c(=O)[nH]c1=O` (configuration not stated), for which, where the note is “dose: 250.0 mg/kg/injection, schedule: Q01DX011 (ip), vehicle: saline”, the T/C was 136 % of control.
